According to paper PMC5722536:
These are yes or no findings as the source states them, for the method shown. Binding seen in cells or lysates may run through a third protein. Some binding calls cover weakened binding; strength is not graded here.

Target: calreticulin (CALR) (human (endogenous in A549 and H460)) (UniProt P27797)
Test: co-IP; Pierce co-IP Kit; 10 ug anti-CALR or anti-PDIA3 antibody immobilised on resin; pre-cleared A549 and H460 cell lysates incubated overnight at 4°C; eluates analysed by western blot

binding: binds
Substance: protein disulfide isomerase family A member 3 (PDIA3) (from UniProt P30101 25-505)
